Reference: PubChem BioAssay AID1259308 (NCATS, 2017)
The whole screen tested about 59,000 reagents; shown is a part drawn at random. About 1,510 of all reagents (2.6%) were called active. 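Calls use total luciferase alone and ignore viability, so some active siRNAs may act by altering cell number.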 Unmarked entries are inactive. The numbers tell different reagents against one gene apart. Reagent sequences are not shown.

- Purpose: 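Candidate targets for better recombinant protein yield in mammalian cells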 (primary screen)
- Cell system: human HEK293 embryonic kidney cells stably expressing firefly luciferase (HEK-CMV-Luc2-Hygro)
- Knock-down reagent: single siRNA against human genes, 0.8 pmol siRNA per well
- Time to read-out: 72 h
- Read-out: 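Luciferase light (ONE-Glo) measured on one replicate plate set and viability (CellTiter-Glo) on the other, scaled to a negative control siRNA, with robust z-scores and luciferase per cell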
- Direction: total luciferase, z-score and total luciferase, % of control: higher = more reporter protein produced; luciferase per cell, z-score: higher = more reporter output per viable cell; viable cells, % of control: higher = more viable cells
- Call rule: 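An siRNA counts as active if its total luciferase robust z-score exceeds 3; genes with two or more such siRNAs out of three were retested with fresh siRNAs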
- Calls: active = raised luciferase; inactive = no rise

gene	siRNA no.	total luciferase, z-score	total luciferase, % of control	luciferase per cell, z-score	viable cells, % of control
MTFP1 (mitochondrial fission process 1)	1	1.25	107	1.39	82.6
MTFP1 (mitochondrial fission process 1)	2	-1.16	58.8	-0.641	77.8
MTFP1 (mitochondrial fission process 1)	3	1.88	119	1.36	93.1
ZNF513 (zinc finger protein 513)	1	0.221	86.3	0.446	85.7
ZNF513 (zinc finger protein 513)	2	0.657	94.9	1.13	78.7
ZNF513 (zinc finger protein 513)	3	0.175	85.4	0.591	81.6
GNPAT (glyceronephosphate O-acyltransferase)	1	-0.898	64	-0.768	87.6
GNPAT (glyceronephosphate O-acyltransferase)	2	-0.93	63.4	-1.21	97.5
GNPAT (glyceronephosphate O-acyltransferase)	3	-0.124	79.4	-0.571	103
SERPINA5 (serpin family A member 5)	1	-0.826	65.5	-0.856	91.6
SERPINA5 (serpin family A member 5)	2	-0.765	66.7	-0.355	81.8
SERPINA5 (serpin family A member 5)	3	-1.43	53.4	-0.648	70.8
PABPN1 (poly(A) binding protein nuclear 1)	1	3.94 (active)	160	4.04	61.8
PABPN1 (poly(A) binding protein nuclear 1)	2	0.98	101	1.47	77
PABPN1 (poly(A) binding protein nuclear 1)	3	0.802	97.8	0.915	85.9
ADH6 (alcohol dehydrogenase 6 (class V))	1	0.22	86.3	-0.3	104
ADH6 (alcohol dehydrogenase 6 (class V))	2	0.541	92.6	0.609	88.2
ADH6 (alcohol dehydrogenase 6 (class V))	3	-1.41	53.9	-0.142	62.5
PCDHB9 (protocadherin beta 9)	1	-0.595	70.1	-0.857	98.1
PCDHB9 (protocadherin beta 9)	2	0.562	93.1	-0.182	109
PCDHB9 (protocadherin beta 9)	3	-0.145	79	-0.922	113
GFAP (glial fibrillary acidic protein)	1	-0.278	76.4	-0.789	105
GFAP (glial fibrillary acidic protein)	2	-0.144	79	-0.458	99.6
GFAP (glial fibrillary acidic protein)	3	0.37	89.2	0.49	87.7

Targets listed so far whose gene name starts with S or s (3):
gene	siRNA no.	total luciferase, z-score	total luciferase, % of control	luciferase per cell, z-score	viable cells, % of control
SERPINA5 (serpin family A member 5)	1	-0.826	65.5	-0.856	91.6
SERPINA5 (serpin family A member 5)	2	-0.765	66.7	-0.355	81.8
SERPINA5 (serpin family A member 5)	3	-1.43	53.4	-0.648	70.8
